Data: publication PMC5636799
These are yes or no findings as the source states them, for the method shown. Binding seen in cells or lysates may run through a third protein. Some entries that bind do so weakly or less than the wild type.

Chains of the proteins cited; added tags and fusions are not shown.
UniProt P25963: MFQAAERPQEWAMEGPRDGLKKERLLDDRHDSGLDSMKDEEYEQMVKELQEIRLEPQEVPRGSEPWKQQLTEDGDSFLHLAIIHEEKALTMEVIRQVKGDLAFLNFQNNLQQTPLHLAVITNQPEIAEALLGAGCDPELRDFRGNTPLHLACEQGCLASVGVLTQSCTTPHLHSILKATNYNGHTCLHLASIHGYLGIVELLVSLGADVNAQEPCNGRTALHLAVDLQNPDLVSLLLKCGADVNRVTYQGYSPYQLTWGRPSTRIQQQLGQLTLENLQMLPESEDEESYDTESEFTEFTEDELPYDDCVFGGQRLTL

Molecular target: T1, IKKβ (human (endogenous in HUVECs)) (UniProt O14920)
T1 sequence: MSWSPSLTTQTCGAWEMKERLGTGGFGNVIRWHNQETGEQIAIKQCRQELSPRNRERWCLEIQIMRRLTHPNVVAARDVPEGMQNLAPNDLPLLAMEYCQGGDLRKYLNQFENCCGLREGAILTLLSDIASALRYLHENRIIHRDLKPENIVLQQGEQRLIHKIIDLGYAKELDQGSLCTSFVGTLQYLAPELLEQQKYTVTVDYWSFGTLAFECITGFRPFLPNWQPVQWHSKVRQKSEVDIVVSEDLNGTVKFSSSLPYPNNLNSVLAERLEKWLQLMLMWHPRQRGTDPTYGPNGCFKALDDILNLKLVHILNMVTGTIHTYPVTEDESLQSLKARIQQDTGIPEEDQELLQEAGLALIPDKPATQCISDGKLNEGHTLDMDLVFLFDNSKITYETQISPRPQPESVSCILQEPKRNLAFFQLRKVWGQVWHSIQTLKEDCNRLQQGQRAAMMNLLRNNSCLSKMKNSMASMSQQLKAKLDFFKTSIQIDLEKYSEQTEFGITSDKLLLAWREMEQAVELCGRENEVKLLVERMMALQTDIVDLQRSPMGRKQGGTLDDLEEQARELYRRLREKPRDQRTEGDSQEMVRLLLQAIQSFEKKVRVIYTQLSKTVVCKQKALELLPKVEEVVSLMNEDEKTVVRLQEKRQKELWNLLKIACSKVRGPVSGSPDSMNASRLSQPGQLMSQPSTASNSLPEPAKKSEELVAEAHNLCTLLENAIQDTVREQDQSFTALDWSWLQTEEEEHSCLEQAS
Assay: co-IP; HUVEC cell extract precipitated with anti-IKKβ antibody (2 μg, 2 h, 4 °C) and protein A/G plus-agarose overnight, washed thrice with ice-cold RIPA buffer, Western blot; cells treated with TNF-α (10 ng/mL) for 1 h

Substance: IκBα (from UniProt P25963 1-317)
- binding: binds
